Source: PubChem BioAssay AID504467 (National Center for Advancing Translational Sciences (NCATS), 2011)
The campaign covered roughly 330,000 compounds. About 7,700 (2.3%) were called active. The shares of active, inactive and inconclusive entries below differ from those in the screen. Calls follow the shape of the dose curve; as a rule, active = well fitted inhibition curve with a large enough effect; inconclusive = small, poorly fitted or top-dose-only effect, or effect the other way; inactive = flat fitted curve, though single readings scatter. A potency beside an inconclusive call is a rough fit, not a confirmed value.

Experiment: qHTS screen for small molecules that inhibit ELG1-dependent DNA repair in human embryonic kidney (HEK293T) cells expressing luciferase-tagged ELG1; also: nearly all actives have a fitted effect of over 55% in size
Details: HEK293T ELG1-luciferase reporter, luminescence, 16 h, DNA damage induced by 5-fluorouridine; activity change, negative = inhibition: at 46.1 µM (top of the series)
In short: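 In this reporter screen, reduction of luminescence relative to DMSO vehicle indicated activity. Compounds and 5-fluorouridine were added together to 2,000 cells per well, incubated for 16 hr at 37 °C, then developed with ONE-Glo.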
% is scaled to controls: 0 for no effect and ±100 for the full control effect; potency is read from the fitted curve at half-maximal effect.

Row | Compound | activity change, negative = inhibition | Potency
1 | CCOC(=O)c1cc(CC)sc1/N=C/C1=C(O)CC(C)(C)CC1=O | inactive: 5.94% | 
2 | COC(=O)c1ccccc1NC(=O)C(C)c1ccc([N+](=O)[O-])cc1 (stereo unspecified) | inactive: -15% | 
3 | O=[N+]([O-])c1ccc(-c2nc(Nc3ccc(O)cc3)c3ccccc3n2)cc1 |  | inconclusive: 29.1 µM [inhibitor, single point]
4 | CC1(C)C2CCC1(CS(=O)(=O)Nc1ccc(S(=O)(=O)N3CCCCC3)cc1)C(=O)C2 (stereo unspecified) | inactive: -12.3% | 
5 | CC(=O)Nc1ccccc1C(F)(F)F | inactive: 14.6% | 
6 | Cc1cc(OCC(=O)N(C)C2CCCCC2)ccc1Cl |  | inconclusive: 2.31 µM [activator, full curve]
7 | Cc1ccc(-c2nnc(SCC(=O)Nc3ccc4c(c3)oc3ccccc34)n2C)c(Cl)c1 |  | active: 18.4 µM
8 | COc1ccc(N2C(=O)[C@@H]3Cc4ccccc4CN3C2=O)cc1 |  | inconclusive: 18.4 µM [activator, single point]
9 | O=C(CN1C(=O)S/C(=C\c2cccs2)C1=O)Nc1ccc(C(=O)O)c(O)c1 |  | inconclusive: 18.3 µM [activator, partial curve, poor fit]
10 | COc1ccccc1NC(=O)CN(c1ccc(C23CC4CC(CC(C4)C2)C3)cc1)S(C)(=O)=O | inactive: 25.3% | 
11 | Cc1nc2c(-c3ccc(F)cc3)c(C)nn2c(C)c1CCC(=O)Nc1ccc(F)cc1F | inactive: 4.75% | 
12 | COc1ccc(/C=C/C(=O)Nc2cccc(S(=O)(=O)N3CCCC3)c2)cc1OC |  | inconclusive: 29.1 µM [inhibitor, single point]
13 | NC(Cc1ccc(OC(F)F)cc1)C(=O)O (stereo unspecified) |  | inconclusive: 23.1 µM [activator, single point]
14 | CC(C)COC(=O)c1ccc(NC(=O)C2C3CCC(C3)C2C(=O)O)cc1 (stereo unspecified) |  | inconclusive: 10.3 µM [activator, single point]
15 | O=c1c(-c2nc3ccccc3o2)c2oc3ccccc3n2c2ccccc12 |  | active: 5.17 µM
16 | CCc1nc(SCC(=O)c2ccc3c(c2)OCCO3)c2ccccc2n1 |  | inconclusive: 23.1 µM [inhibitor, single point]
17 | COc1ccc(CCNc2cc(C)nc3c(-c4ccccc4)cnn23)cc1OC |  | inconclusive: 18.4 µM [inhibitor, single point]
18 | Cc1ccc(P(=O)(CO)c2ccc(C)cc2)cc1 | inactive: 17.9% | 
19 | N#Cc1ccccc1NC(=O)CSC1=Nc2ccccc2C2CC=NN12 (stereo unspecified) |  | inconclusive: 29.1 µM [inhibitor, single point]
20 | CC(C)(C)c1ccc(C(=O)Nc2ccc(C(=O)NCc3cccnc3)cc2)cc1 |  | active: 0.517 µM
21 | CC(C)N1C(=O)CSC1c1ccc(Br)cc1 (stereo unspecified) | inactive: -10% | 
22 | CC(C)c1ccc(NC(=O)/C(C#N)=C/c2ccncc2)cc1 |  | inconclusive: 29.1 µM [activator, single point]
23 | CC(C)NC(=S)N=Nc1c(O)[nH]c2ccc(C(C)C)cc12 | inactive: -25.1% | 

Row | Compound | activity change, negative = inhibition | Potency
24 | CCCCOC(=O)c1ccc(N/C(=N\S(=O)(=O)c2ccccc2)c2ccccc2)cc1 |  | inconclusive: 20.6 µM [inhibitor, partial curve]
25 | COc1ccccc1NC(=S)NNC(=O)c1ccncc1 | inactive: 8.28% | 
26 | CN(C)CCN(C(=O)c1ccc(S(=O)(=O)N2CCCC2)cc1)c1nc2ccc(Br)cc2s1 |  | inconclusive: 29.1 µM [activator, single point]
27 | O=C(NCC(=O)N1CCN(Cc2ccccc2)CC1)c1ccc(Br)cc1 |  | inconclusive: 25.9 µM [inhibitor, partial curve, poor fit]
28 | Cc1ccc(C2=CC(=O)CC(C)(C)C2)cc1 |  | inconclusive: 23.1 µM [activator, single point]
29 | O=C(NCC1CCCO1)c1cc2ccccc2o1 (stereo unspecified) |  | inconclusive: 7.3 µM [activator, partial curve, poor fit]
30 | O=C(Cc1c(F)cccc1Cl)Nc1nc2ccccc2s1 |  | inconclusive: 29.1 µM [activator, single point]
31 | O=C(c1cnn2c(C(F)(F)F)cc(-c3cccs3)nc12)N1CCN(Cc2ccccc2)CC1 |  | active: 6.51 µM
32 | O=C(NCCc1ccccc1)C1CCN(c2ncccn2)CC1 |  | inconclusive: 18.3 µM [activator, single point]
33 | COc1cc(OC)c2c(-c3ccccc3)cc(=O)oc2c1C(CCN1CCOCC1)c1ccc2c(c1)OCO2 (stereo unspecified) | inactive: -3.07% | 
34 | Cc1nc2c(nnn2Cc2ccccc2)c(=O)[nH]1 | inactive: 2.33% | 
35 | CC1CC1C(=O)OCC(=O)NC(=O)c1ccc(C(C)(C)C)cc1 (stereo unspecified) |  | inconclusive: 18.3 µM [activator, single point]
36 | CCN(CC)C(=O)Cn1c(=O)n(C)c2ccccc21 |  | inconclusive: 23.1 µM [activator, partial curve, poor fit]
37 | COc1ccc(C(=O)N=c2sc3c(C)ccc(OC)c3n2C)cc1OC |  | inconclusive: 2.91 µM [activator, partial curve]
38 | Cc1ccc2nc(NC(=O)C3CC3C)sc2c1 (stereo unspecified) |  | inconclusive: 4.11 µM [activator, full curve]
39 | Cc1nc2cc(NCc3ccc(Cl)cc3)ccc2n1C |  | inconclusive: 2.06 µM [activator, partial curve]
40 | COc1ccc(C2CC(c3ccccc3Cl)Nc3ncnn32)cc1OC (stereo unspecified) | inactive: 8.21% | 
41 | CCOC(=O)C1=C(CC)Nc2ccccc2N=C1NC(=O)c1cccc(S(=O)(=O)N2CCCC2)c1 |  | inconclusive: 29.1 µM [inhibitor, partial curve, poor fit]
42 | Cc1ccc(CN2CC(C(=O)N3CCN(c4ccccc4Cl)CC3)CC2=O)cc1 (stereo unspecified) |  | inconclusive: 35.5 µM [inhibitor, single point]
43 | C=CCN(CC=C)S(=O)(=O)c1ncn[nH]1 | inactive: 6.36% | 
44 | CCOC(=O)C1=CN(Cc2cccc(-c3cccnc3)c2)S(=O)(=O)N(CC)C1C (stereo unspecified) |  | inconclusive: 25.9 µM [inhibitor, partial curve, poor fit]
45 | N=c1oc2ccccc2cc1C(=O)Nc1ccccc1 |  | inconclusive: 1.64 µM [activator, full curve]
46 | CSc1ccccc1C(=O)C1CCCN(C(=O)c2csnn2)C1 (stereo unspecified) |  | inconclusive: 29.1 µM [activator, single point]

In a second layout: results already given

| Row | Compound | activity change, negative = inhibition | Potency |
| --- | --- | --- | --- |
| 35 | CC1CC1C(=O)OCC(=O)NC(=O)c1ccc(C(C)(C)C)cc1 (stereo unspecified) |  | inconclusive: 18.3 µM [activator, single point] |
| 42 | Cc1ccc(CN2CC(C(=O)N3CCN(c4ccccc4Cl)CC3)CC2=O)cc1 (stereo unspecified) |  | inconclusive: 35.5 µM [inhibitor, single point] |
| 45 | N=c1oc2ccccc2cc1C(=O)Nc1ccccc1 |  | inconclusive: 1.64 µM [activator, full curve] |
